Data published in US20240076370A1 (Memorial Sloan Kettering, published 2024).
No constants are given. Whether binding was seen depends on the method and setting. Some results given as binding are weak or reduced against the parent protein; the word gives no strength. Each block holds one binder with its values, some of them ahead of it.

Columns and labels:
[1] = target: T1, GPRC5D peptide stretch 16…25 (N-term) (human); test: Pepscan peptide array ELISA, moderate stringency, 1 µg/ml
T1 sequence (peptide): CDAEGPWGII

[2] = target: T2, GPRC5D peptide stretch 229…237 (ECL3) (human); test: as above
T2 sequence (peptide): PQFQRQPQW

[3] = target: T3, GPRC5D peptide stretch 5…17 (N-term) (human); test: Pepscan peptide array ELISA, high stringency, 1 µg/ml
T3 sequence (peptide): CIESTGDYFLLCD

[4] = target: T4, GPRC5D peptide stretch 10GDYFLLCD17 (N-term) (human); test: as above
T4 sequence (peptide): GDYFLLCD

[5] = target: T5, GPRC5D peptide stretch 227…237 (ECL3) (human); test: as above
T5 sequence (peptide): GNPQFQRQPQW

[6] = target: T6, GPRC5D peptide stretch 15…23 (N-term) (human); test: Pepscan peptide array ELISA, high stringency, 3 µg/ml
T6 sequence (peptide): LCDAEGPWG

B1: ET150-2 mIgG1 (antibody, V domains shown)
VH: QMQLVQSGAEVKKPGASVKVSCKASGYTFNRYAITWVRQAPGQGLEWMGWISAYNGNSHYAQKLQGRVTMTTDTSTGTAYMELRRLRSDDTAVYYCARMAYDSWGQGTLVTVSS
VL: QSVLTQPASVSGSPGQSLTISCTGTSNDVGAYKYVSWYQQYPGKAPKLILYDVFKRPSGVSNRFSGSKSDNTASLTISGLQAEDEADYYCFSLTSSNTYVFGTGTKVTVLG
notes: also called ET150-152
- binding [1]: binds
- binding [2]: binds

B2: ET150-5 mIgG1 (antibody, V domains shown)
VH: EVQLVESGGGLVKPGGSLRLSCAASGFTFSDYYMSWIRQAPGKGLEWVSYISSSGSTIYYADSVKGRFTISRDNAKNSLYLQMNSLRAEDTAVYYCARGYGKAYDQWGQGTLVTVSS
VL: QSVLTQPPSASGTPGQRVTISCSGSRSNVGGNYVFWYQQVPGATPKLLIYRSNQRPSGVPDRFAGSKSGSSASLAISGLRSEDEADYYCATWDDSLSGFVFGTGTKVTVLG
notes: also called ET150-155
- binding [3]: binds

Second part, the binder after the results:

- binding [4]: binds
- binding [5]: binds
B3: ET150-18 mIgG1 (antibody, V domains shown)
VH: EVQLVESGGGLIQPGGSLRLSCAASGFTFSNYAMNWVRQAPGKGLEWVSTINGRGSSTIYADSVKGRFTISRDNSKNTLYLQMNSLRAEDTATYYCARYISRGLGDSWGQGTLVTV
VL: QSVVTQPPSMSAAPGQQVTISCSGGNSNIERNYVSWYLQLPGTAPKLVIFDNDRRPSGIPDRFSGSKSGTSATLGITGLQTGDEADYYCGTWDSSLRGWVFGGGTKLTVLG
notes: also called ET150-168

- binding [6]: binds
B4: ET150-8 mIgG1 (antibody, V domains shown)
VH: QVQLVESGGGLVHPGGSLRLSCAASGFTFRSHSMNWVRQAPGKGLEWVSSISSDSTYTYYADSVKGRFTISRDNAKNSLYLQMNSLRAEDTAVYYCARSGGQWKYYDYWGQGTLVTVSS
VL: SSELTQDPAVSVALGQTVRITCQGDSLRSYYASWYQQKPGQAPVLVIYGKNNRPSGIPDRFSGSSSGNTASLTITGAQAEDEADYYCNSRDSSGNPPVVFGGGTKLTVLG
notes: also called ET150-158
